Measured data: PubChem BioAssay AID1259308 (NCATS, 2017)

Assay: 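Candidate targets for better recombinant protein yield in mammalian cells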 (primary screen)
Cell system: human HEK293 embryonic kidney cells stably expressing firefly luciferase (HEK-CMV-Luc2-Hygro)
Knock-down reagent: single siRNA against human genes, 0.8 pmol siRNA per well
Time to read-out: 72 h
Read-out: 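Reporter luminescence and viable-cell signal on separate replicate plates, given as percent of non-targeting control and median/MAD z-scores, plus per-cell luciferase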
Direction: total luciferase, z-score and total luciferase, % of control: higher = more reporter protein produced; luciferase per cell, z-score: higher = more reporter output per viable cell
Rule for the call: 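Active when the median/MAD z-score for overall luciferase is greater than 3; a gene was taken forward for validation with new siRNAs if at least two of its three siRNAs passed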
Meaning of the calls: active = raised luciferase; inactive = no rise
The deposit covers about 59,000 reagents; below is a part drawn at random. Over the whole deposit, about 1,510 (2.6%) are marked active. 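Calls use total luciferase alone and ignore viability, so some active siRNAs may act by altering cell number.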 Reagents against one gene are numbered here. Further read-outs or replicates are left out here.

Gene,reagent,"total luciferase, z-score","total luciferase, % of control","luciferase per cell, z-score",Outcome
RFX1 (GeneID 5989),1,-0.148,78.9,0.503,inactive
RFX1 (GeneID 5989),2,0.436,90.6,0.678,inactive
RFX1 (GeneID 5989),3,1.12,104,1.92,inactive
COA7 (GeneID 65260),1,-0.225,77.4,-0.743,inactive
COA7 (GeneID 65260),2,-0.0566,80.8,-0.512,inactive
COA7 (GeneID 65260),3,0.241,86.7,0.386,inactive
SPATA32 (GeneID 124783),1,3.74,156,3.57,active
SPATA32 (GeneID 124783),2,0.875,99.3,0.305,inactive
SPATA32 (GeneID 124783),3,1.1,104,0.327,inactive
GPR137C (GeneID 283554),1,0.792,97.6,0.258,inactive
GPR137C (GeneID 283554),2,0.272,87.3,-0.558,inactive
GPR137C (GeneID 283554),3,0.796,97.7,0.436,inactive
IGFBP6 (GeneID 3489),1,0.631,94.4,1.06,inactive
IGFBP6 (GeneID 3489),2,-0.813,65.7,-0.959,inactive
IGFBP6 (GeneID 3489),3,0.902,99.8,0.738,inactive
HES4 (GeneID 57801),1,6.48,211,3.21,active
HES4 (GeneID 57801),2,-1.37,54.5,-1.04,inactive
HES4 (GeneID 57801),3,-0.404,73.8,-0.502,inactive
ASTL (GeneID 431705),1,0.14,84.7,0.116,inactive
ASTL (GeneID 431705),2,1.68,115,1.12,inactive
ASTL (GeneID 431705),3,-0.751,66.9,-1.31,inactive
IAH1 (GeneID 285148),1,-0.0903,80.1,0.924,inactive
IAH1 (GeneID 285148),2,-0.65,68.9,-0.163,inactive
IAH1 (GeneID 285148),3,0.964,101,0.687,inactive
MUC13 (GeneID 56667),1,-1.86,44.9,-1.96,inactive
MUC13 (GeneID 56667),2,-1.06,60.7,-0.909,inactive
MUC13 (GeneID 56667),3,0.333,88.5,0.616,inactive
EBPL (GeneID 84650),1,0.673,95.3,0.643,inactive
EBPL (GeneID 84650),2,0.675,95.3,0.447,inactive
EBPL (GeneID 84650),3,1.25,107,0.978,inactive

A run of entries from the list above, as a working copy:
Gene,reagent,"total luciferase, z-score","total luciferase, % of control","luciferase per cell, z-score",Outcome
IGFBP6 (GeneID 3489),3,0.902,99.8,0.738,inactive
HES4 (GeneID 57801),1,6.48,211,3.21,active
HES4 (GeneID 57801),2,-1.37,54.5,-1.04,inactive
HES4 (GeneID 57801),3,-0.404,73.8,-0.502,inactive
ASTL (GeneID 431705),1,0.14,84.7,0.116,inactive
ASTL (GeneID 431705),2,1.68,115,1.12,inactive
ASTL (GeneID 431705),3,-0.751,66.9,-1.31,inactive
IAH1 (GeneID 285148),1,-0.0903,80.1,0.924,inactive
IAH1 (GeneID 285148),2,-0.65,68.9,-0.163,inactive

Next entries follow:
Gene,reagent,"total luciferase, z-score","total luciferase, % of control","luciferase per cell, z-score",Outcome
PRDX6 (GeneID 9588),1,1.1,104,0.802,inactive
PRDX6 (GeneID 9588),2,0.617,94.1,0.792,inactive
PRDX6 (GeneID 9588),3,0.436,90.6,-0.0317,inactive
ERH (GeneID 2079),1,-1.21,57.9,0.54,inactive
ERH (GeneID 2079),2,-0.673,68.5,0.0104,inactive
ERH (GeneID 2079),3,-1.54,51.3,-0.799,inactive
RUNDC3A (GeneID 10900),1,0.281,87.5,0.479,inactive
RUNDC3A (GeneID 10900),2,-0.372,74.5,-0.702,inactive
RUNDC3A (GeneID 10900),3,-0.783,66.3,-0.0168,inactive
DIO1 (GeneID 1733),1,0.82,98.2,0.656,inactive
DIO1 (GeneID 1733),2,-1.15,59,-1.08,inactive
DIO1 (GeneID 1733),3,-1.73,47.5,-1.74,inactive
VWF (GeneID 7450),1,-0.346,75,-0.0518,inactive
VWF (GeneID 7450),2,0.456,91,0.242,inactive
VWF (GeneID 7450),3,-0.185,78.2,-0.0203,inactive
TRAF5 (GeneID 7188),1,-0.818,65.6,-0.655,inactive
TRAF5 (GeneID 7188),2,1.45,111,3.41,inactive
TRAF5 (GeneID 7188),3,-0.312,75.7,-0.721,inactive
TMEM39A (GeneID 55254),1,-0.118,79.5,0.0136,inactive
TMEM39A (GeneID 55254),2,1.87,119,1.12,inactive
TMEM39A (GeneID 55254),3,0.329,88.4,-0.132,inactive
DENND6A (GeneID 201627),1,0.522,92.3,0.095,inactive
DENND6A (GeneID 201627),2,1.18,105,2.49,inactive
DENND6A (GeneID 201627),3,0.986,101,1.24,inactive
LINC02897 (GeneID 388759),1,0.0852,83.6,0.0751,inactive
LINC02897 (GeneID 388759),2,1.03,102,0.821,inactive
LINC02897 (GeneID 388759),3,2.68,135,1.77,inactive
